Test results reported in patent US20110136791A1, “COMBINATION OF A NICOTINIC RECEPTOR PARTIAL AGONIST AND OF AN ACETYLCHOLINESTERASE INHIBITOR, PHARMACEUTICAL COMPOSITION CONTAINING SAME AND USE THEREOF IN THE TREATMENT OF COGNITIVE DISORDERS” (priority 2008, published 2011).

Tested on: rats with no deficit
Assay: Test for spontaneous forgetting in rats with no deficit (object recognition test, visual episodic memory)
Assay type: in vivo
Settings: rat, p.o. 60 min before session; group 2: 0.1 mg/kg; group 3: rivastigmine 0.03 mg/kg; group 4: 0.01 mg/kg + rivastigmine 0.03 mg/kg (base equivalent); 2 min session
Description: 1. Test for Spontaneous Forgetting in Rats with No Deficit
1.) Accustomization phase: In this protocol, the animals are first subjected to a session of accustomization to the environmental context (a wooden chamber of 65×45×45 cm) for a period of 2 minutes. The time spent in active locomotion is measured using a timer. 2.) Learning phase: 24 hours later, two exactly identical objects (either metal triangles or pyramids made of Lego) are placed in the experimental device. Each rat is placed in the middle of the chamber, the nose against the wall opposite that where the objects/stimulus are located. The pairs of objects presented are alternated equitably in each of the groups of rats. The animals are left in the experimental chamber until they reach a period of exploration of the two objects equal to 20 seconds, out of a maximum period of 3 minutes. As soon as the 20 seconds of exploration are reached, the rat is put back in its housing cage. […] 3.) Recalling session: The recalling session takes place after a forgetting period of 24 h for all the groups. […]
This test lasts 3 minutes, during which the time spent exploring each of the 2 objects is measured. […]
For the learning and recalling sessions, the exploring of an object is counted if the animal orients its nose toward the object, inside a perimeter of 2 centimeters around said object, or if it touches it with its nose or with its feet. […]

Compound	Locomotion (time spent in locomotion during the first accustomization session) [s]
CCN(C)C(=O)Oc1cccc([C@H](C)N(C)C)c1 [rivastigmine]	24.94 ± 2.38
O=C(O)/C=C/C(=O)O.O=C(Oc1ccc(Br)cc1)N1CCN2CCC1CC2 [4-bromophenyl 1,4-diazabicyclo[3.2.2]nonane-4-carboxylate (2E)-but-2-enedioate]	21.15 ± 1.14
